Test results published in PMC8042168, “The cell surface hyaluronidase TMEM2 regulates cell adhesion and migration via degradation of hyaluronan at focal adhesion sites” (The Journal of Biological Chemistry, 2021).
These are yes or no findings as the source states them, for the method shown. Some entries that bind do so weakly or less than the wild type. Where a sequence is shown, tags or fusion partners need not be part of it.

Sequences of proteins named here, by UniProt entry; tags and fusion partners are left off. A change or cut given only in a name is not applied to a line headed by its entry.
UniProt P20701: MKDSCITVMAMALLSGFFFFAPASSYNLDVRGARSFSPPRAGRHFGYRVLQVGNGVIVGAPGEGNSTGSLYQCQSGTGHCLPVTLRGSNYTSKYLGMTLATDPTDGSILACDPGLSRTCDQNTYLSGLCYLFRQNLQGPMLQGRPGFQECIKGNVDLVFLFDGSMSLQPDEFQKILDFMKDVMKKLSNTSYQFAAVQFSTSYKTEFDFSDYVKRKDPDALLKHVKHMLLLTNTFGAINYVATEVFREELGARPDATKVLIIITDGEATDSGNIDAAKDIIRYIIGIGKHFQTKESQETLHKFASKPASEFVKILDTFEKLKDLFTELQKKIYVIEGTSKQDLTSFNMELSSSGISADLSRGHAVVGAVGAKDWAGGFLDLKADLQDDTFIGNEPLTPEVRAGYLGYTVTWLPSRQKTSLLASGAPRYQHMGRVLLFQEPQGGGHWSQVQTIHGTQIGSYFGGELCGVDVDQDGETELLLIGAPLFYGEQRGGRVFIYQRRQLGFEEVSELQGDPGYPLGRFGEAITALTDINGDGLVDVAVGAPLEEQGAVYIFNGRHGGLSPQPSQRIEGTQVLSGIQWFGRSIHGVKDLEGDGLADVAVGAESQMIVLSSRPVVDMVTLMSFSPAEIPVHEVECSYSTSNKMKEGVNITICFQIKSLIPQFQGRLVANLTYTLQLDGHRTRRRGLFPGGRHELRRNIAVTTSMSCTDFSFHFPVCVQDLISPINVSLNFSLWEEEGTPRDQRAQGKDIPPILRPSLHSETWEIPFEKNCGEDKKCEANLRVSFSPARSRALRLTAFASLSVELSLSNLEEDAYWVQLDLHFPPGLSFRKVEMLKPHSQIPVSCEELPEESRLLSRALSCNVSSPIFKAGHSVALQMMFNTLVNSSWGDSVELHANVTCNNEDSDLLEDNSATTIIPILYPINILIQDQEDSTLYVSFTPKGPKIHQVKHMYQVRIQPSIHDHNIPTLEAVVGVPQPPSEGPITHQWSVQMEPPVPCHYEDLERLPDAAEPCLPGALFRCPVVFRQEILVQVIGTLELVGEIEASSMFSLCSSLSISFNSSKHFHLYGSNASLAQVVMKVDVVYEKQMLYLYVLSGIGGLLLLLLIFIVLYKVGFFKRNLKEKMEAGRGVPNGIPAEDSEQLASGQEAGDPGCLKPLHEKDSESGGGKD

Target: T1, recombinant soluble TMEM2 extracellular domain, 6x His-tagged (mouse) (UniProt Q5FWI3)
T1 sequence: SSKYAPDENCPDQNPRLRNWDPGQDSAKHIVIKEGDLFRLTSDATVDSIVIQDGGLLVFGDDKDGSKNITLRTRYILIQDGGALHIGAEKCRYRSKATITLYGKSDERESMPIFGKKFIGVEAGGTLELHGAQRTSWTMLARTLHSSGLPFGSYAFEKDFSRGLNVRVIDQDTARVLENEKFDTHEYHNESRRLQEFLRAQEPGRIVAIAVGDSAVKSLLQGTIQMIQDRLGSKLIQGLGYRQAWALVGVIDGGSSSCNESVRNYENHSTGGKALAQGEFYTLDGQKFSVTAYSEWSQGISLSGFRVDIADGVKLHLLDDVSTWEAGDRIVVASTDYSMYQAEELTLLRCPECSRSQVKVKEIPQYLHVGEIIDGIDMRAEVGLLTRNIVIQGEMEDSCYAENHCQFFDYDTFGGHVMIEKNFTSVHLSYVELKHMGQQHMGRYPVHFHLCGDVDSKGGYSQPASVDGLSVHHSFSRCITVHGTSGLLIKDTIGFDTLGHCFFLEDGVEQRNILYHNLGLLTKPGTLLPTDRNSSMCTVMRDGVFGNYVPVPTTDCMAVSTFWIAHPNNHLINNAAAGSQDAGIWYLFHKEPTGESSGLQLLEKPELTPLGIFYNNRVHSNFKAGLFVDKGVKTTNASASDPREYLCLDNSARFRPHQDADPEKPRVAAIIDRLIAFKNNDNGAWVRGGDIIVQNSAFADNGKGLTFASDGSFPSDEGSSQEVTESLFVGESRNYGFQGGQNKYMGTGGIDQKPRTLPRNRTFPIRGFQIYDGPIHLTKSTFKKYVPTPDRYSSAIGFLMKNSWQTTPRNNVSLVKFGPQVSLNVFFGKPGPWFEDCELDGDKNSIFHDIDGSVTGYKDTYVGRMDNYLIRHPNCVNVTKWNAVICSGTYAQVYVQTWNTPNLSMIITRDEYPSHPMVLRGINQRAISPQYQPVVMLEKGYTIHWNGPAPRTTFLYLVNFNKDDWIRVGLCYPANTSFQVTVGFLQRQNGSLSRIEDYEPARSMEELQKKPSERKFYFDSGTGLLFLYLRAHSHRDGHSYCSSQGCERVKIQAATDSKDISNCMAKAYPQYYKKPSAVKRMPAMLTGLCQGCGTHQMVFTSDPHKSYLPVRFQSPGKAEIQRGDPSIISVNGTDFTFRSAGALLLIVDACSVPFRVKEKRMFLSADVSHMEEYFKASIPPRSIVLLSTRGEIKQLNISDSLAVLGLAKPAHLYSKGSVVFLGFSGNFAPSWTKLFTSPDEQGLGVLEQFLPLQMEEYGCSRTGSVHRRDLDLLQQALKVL
Experiment: pull-down; TMEM2–ECD-His6 (about 5 μg/20 μl) held on ProBond nickel chelating resin; 2 μg recombinant integrin ECD heterodimer incubated in HBSS++ overnight at 4 °C; control unbound resin; blots; both purified

Q: For “αLβ2 ECD heterodimer (lymphocyte function-associated antigen-1) (from UniProt P20701 26-1090; P05107 23-700) (complex)”, which binding is on record?
A: Its binding is “binds”.
